Measured values taken from article PMC5996148.
Values joined by “and” are separate entries in the source; they are usually repeats but may differ in a detail not shown here. Equal values may be shown once. The list shows a part of the results. For some assays here: The exact form of the protein is not confirmed.

Experiments:
Experiment in all cases: protein microarray (ProtoArray v5.0), streptavidin-Alexa Fluor 647
Conditions in all cases: 3'-biotin; 20 mM Tris (pH 7.5), 5 mM MgCl2, 100 mM KCl, 0.1% Tween-20, A/T-rich and random oligonucleotide blockers; temperature not stated; high values mean tight binding
C9orf62 (human) = tested on: C9orf62 (human)
C9orf64 (human) = tested on: C9orf64 (human)
C9orf71 (human) = tested on: C9orf71 (human)
C9orf80 (human) = tested on: C9orf80 (human)
C9orf95 (human) = tested on: C9orf95 (human)
C9orf97 (human) = tested on: C9orf97 (human)
CA5B (human) = tested on: CA5B (human)
CA9 = CA9 (UniProt Q16790)
CAB39 (human) = tested on: CAB39 (human)
CABC1 (human) = tested on: CABC1 (human)
CABP7 (human) = tested on: CABP7 (human)
CACHD1 (human) = tested on: CACHD1 (human)
CACNG1 (human) = tested on: CACNG1 (human)
CALB1 (human) = tested on: CALB1 (human)
CALCOCO1 (human) = tested on: CALCOCO1 (human)
CALM2 (human) = tested on: CALM2 (human)
CALM3 = CALM3 (UniProt P0DP25)
CAMK1D (human) = tested on: CAMK1D (human)
CAMK4 (human) = tested on: CAMK4 (human)
CANT1 (human) = tested on: CANT1 (human)

Question: What does the source list for “GGGAGGCTGAGGCAGG [G4-1 biotinylated (PQS2)]”?
Answer: binding signal (C9orf62 (human)): -0.292 z-score; binding signal (C9orf64 (human)): -0.314 z-score; binding signal (C9orf71 (human)): -0.32 z-score; binding signal (C9orf80 (human)): -0.312 z-score; binding signal (C9orf95 (human)): -0.343 z-score; binding signal (C9orf97 (human)): -0.289 z-score; binding signal (CA5B (human)): -0.253 z-score; binding signal (CA9): -0.354 z-score; binding signal (CAB39 (human)): -0.346 z-score; binding signal (CABC1 (human)): -0.283 z-score; binding signal (CABP7 (human)): -0.328 z-score; binding signal (CACHD1 (human)): -0.325 z-score; binding signal (CACNG1 (human)): -0.33 z-score; binding signal (CALB1 (human)): -0.334 z-score; binding signal (CALCOCO1 (human)): -0.339 z-score; binding signal (CALM2 (human)): -0.333 z-score; binding signal (CALM3): -0.347 z-score; binding signal (CAMK1D (human)): -0.344 z-score and -0.358 z-score; binding signal (CAMK4 (human)): -0.355 z-score; binding signal (CANT1 (human)): -0.338 z-score
